Data on one molecule can be found in paper PMC5128810.

Chains of the proteins cited; added tags and fusions are not shown.
UniProt P06537: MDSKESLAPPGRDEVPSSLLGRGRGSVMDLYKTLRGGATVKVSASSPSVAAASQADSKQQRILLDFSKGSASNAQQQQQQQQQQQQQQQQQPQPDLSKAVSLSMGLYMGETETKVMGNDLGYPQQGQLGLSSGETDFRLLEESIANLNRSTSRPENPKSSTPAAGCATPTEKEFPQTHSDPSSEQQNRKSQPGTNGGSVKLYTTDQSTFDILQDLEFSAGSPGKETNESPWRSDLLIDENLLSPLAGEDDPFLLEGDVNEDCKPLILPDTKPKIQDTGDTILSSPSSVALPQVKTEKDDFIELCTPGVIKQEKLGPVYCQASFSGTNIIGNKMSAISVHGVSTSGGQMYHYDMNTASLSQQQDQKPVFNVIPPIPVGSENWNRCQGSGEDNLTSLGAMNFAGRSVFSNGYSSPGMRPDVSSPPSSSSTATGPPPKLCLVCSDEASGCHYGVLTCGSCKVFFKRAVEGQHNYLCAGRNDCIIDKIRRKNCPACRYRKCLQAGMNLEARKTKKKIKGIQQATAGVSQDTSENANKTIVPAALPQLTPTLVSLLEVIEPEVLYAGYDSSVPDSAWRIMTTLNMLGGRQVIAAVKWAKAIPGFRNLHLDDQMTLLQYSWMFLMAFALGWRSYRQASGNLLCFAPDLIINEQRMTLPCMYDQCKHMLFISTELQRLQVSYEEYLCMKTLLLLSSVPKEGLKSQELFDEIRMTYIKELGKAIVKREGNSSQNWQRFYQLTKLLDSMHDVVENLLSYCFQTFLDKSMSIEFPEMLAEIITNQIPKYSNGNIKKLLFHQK

In this assay the target is glucocorticoid receptor (mouse (endogenous in mouse MSCs)) (UniProt P06537). The assay is described as follows: co-IP; endogenous proteins from mouse MSCs at day 0, 3 and 5 of osteogenic induction with 10^-7 M dexamethasone; about 350 ug pre-cleared lysate incubated with total GR antibody (D6H2L) or HDAC6 antibody (ab12173) overnight at 4 °C, Protein A/G beads, western blot.

These are yes or no findings as the source states them, for the method shown. In cells and extracts the contact can be indirect. Some results given as binding are weak or reduced against the parent protein; the word gives no strength. Tags and fused reporters may be left off the sequences shown.

B1: Histone Deacetylase 6 (protein, UniProt Q9Z2V5 1-1149)
chain: MTSTGQDSSTRQRKSRHNPQSPLQESSATLKRGGKKCAVPHSSPNLAEVKKKGKMKKLSQPAEEDLVVGLQGLDLNPETRVPVGTGLVFDEQLNDFHCLWDDSFPESPERLHAIREQLILEGLLGRCVSFQARFAEKEELMLVHSLEYIDLMETTQYMNEGELRVLAETYDSVYLHPNSYSCACLATGSVLRLVDALMGAEIRNGMAVIRPPGHHAQHNLMDGYCMFNHLAVAARYAQKKHRIQRVLIVDWDVHHGQGTQFIFDQDPSVLYFSIHRYEHGRFWPHLKASNWSTIGFGQGQGYTINVPWNQTGMRDADYIAAFLHILLPVASEFQPQLVLVAAGFDALHGDPKGEMAATPAGFAHLTHLLMGLAGGKLILSLEGGYNLRALAKGVSASLHTLLGDPCPMLESCVVPCASAQTSIYCTLEALEPFWEVLERSVETQEEDEVEEAVLEEEEEEGGWEATALPMDTWPLLQNRTGLVYDEKMMSHCNLWDNHHPETPQRILRIMCHLEEVGLAARCLILPARPALDSELLTCHSAEYVEHLRTTEKMKTRDLHREGANFDSIYICPSTFACAKLATGAACRLVEAVLSGEVLNGIAVVRPPGHHAEPNAACGFCFFNSVAVAARHAQIIAGRALRILIVDWDVHHGNGTQHIFEDDPSVLYVSLHRYDRGTFFPMGDEGASSQVGRDAGIGFTVNVPWNGPRMGDADYLAAWHRLVLPIAYEFNPELVLISAGFDAAQGDPLGGCQVTPEGYAHLTHLLMGLAGGRIILILEGGYNLASISESMAACTHSLLGDPPPQLTLLRPPQSGALVSISEVIQVHRKYWRSLRLMKMEDKEECSSSRLVIKKLPPTASPVSAKEMTTPKGKVPEESVRKTIAALPGKESTLGQAKSKMAKAVLAQGQSSEQAAKGTTLDLATSKETVGGATTDLWASAAAPENFPNQTTSVEALGETEPTPPASHTNKQTTGASPLQGVTAQQSLQLGVLSTLELSREAEEAHDSEEGLLGEAAGGQDMNSLMLTQGFGDFNTQDVFYAVTPLSWCPHLMAVCPIPAAGLDVSQPCKTCGTVQENWVCLTCYQVYCSRYVNAHMVCHHEASEHPLVLSCVDLSTWCYVCQAYVHHEDLQDVKNAAHQNKFGEDMPHSH
In the case of B1, the binding entry is recorded as “binds”.
